PubChem BioAssay AID1159591, NIAID – 2016
This is a random part of 756 reagents tested. 130 of all reagents (17%) count as active. 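Active calls include both lower and higher Tnf reporter signal.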 The numbers tell different reagents against one gene apart. Not stated in the record: the amount of reagent.

- Aim: 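Which TLR signalling genes macrophages need for R848-driven Tnf promoter activity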
- System: mouse RAW264.7 G9 macrophage reporter clone (GFP-p65, Tnf promoter-mCherry)
- Reagents: single siRNA against mouse genes
- Time to read-out: cells assayed 48 to 72 hours after siRNA transfection; R848 for 16 hours before fixing
- Conditions: R848 (TLR7/8 agonist) for 16 hours before fixation; dose not given
- Detection: 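mCherry Tnf promoter reporter in nuclei imaged after 16 hours of R848, background removed, robust z relative to non-targeting controls using plate median and MAD, replicate average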
- Reading the numbers: mean Tnf reporter z-score: higher = stronger Tnf promoter reporter signal than controls
- Active means: 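Activity score from absolute z: steps above 1, 1.5, 2 and 2.5 give 25 to 100; active cut not stated, but active genes here sit near z -1.5 or below, or 1.5 or above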
- Meaning of the calls: active = reporter clearly up or down; inactive = little reporter change

With knock-down of Mapk14 (mitogen-activated protein kinase 14) #1, the record shows mean Tnf reporter z-score -0.156; inactive.
After knock-down of Mapk14 (mitogen-activated protein kinase 14) #2 the results were mean Tnf reporter z-score 0.273; inactive.
Mapk14 (mitogen-activated protein kinase 14) #3 showed mean Tnf reporter z-score -0.331; inactive.
Knock-down of Mapk14 (mitogen-activated protein kinase 14) #4 came out at: mean Tnf reporter z-score -0.358; inactive.
After knock-down of Mapk14 (mitogen-activated protein kinase 14) #5, the record shows mean Tnf reporter z-score -1.66; active.
Mapk14 (mitogen-activated protein kinase 14) #6 scored mean Tnf reporter z-score -0.72; inactive.
Against Dusp1 (dual specificity phosphatase 1) #1 the deposit lists mean Tnf reporter z-score 0.782; inactive.
Dusp1 (dual specificity phosphatase 1) #2 showed mean Tnf reporter z-score 0.294; inactive.
After knock-down of Dusp1 (dual specificity phosphatase 1) #3 the results were mean Tnf reporter z-score 0.418; inactive.
Against Dusp1 (dual specificity phosphatase 1) #4, the values are mean Tnf reporter z-score 0.211; inactive.
Dusp1 (dual specificity phosphatase 1) #5 scored mean Tnf reporter z-score -0.694; inactive.
Dusp1 (dual specificity phosphatase 1) #6 gave mean Tnf reporter z-score -0.942; inactive.
For Arf6 (ARF GTPase 6) #1, the values are mean Tnf reporter z-score 0.0542; inactive.
Arf6 (ARF GTPase 6) #2 scored mean Tnf reporter z-score 0.641; inactive.
Silencing of Arf6 (ARF GTPase 6) #3 came out at: mean Tnf reporter z-score -0.27; inactive.
For Arf6 (ARF GTPase 6) #4, the entry reads mean Tnf reporter z-score 0.953; inactive.
After knock-down of Arf6 (ARF GTPase 6) #5, the screen gave mean Tnf reporter z-score 0.705; inactive.
Knock-down of Arf6 (ARF GTPase 6) #6 came out at: mean Tnf reporter z-score 0.217; inactive.
For Tab3 (TGF-beta activated kinase 1/MAP3K7 binding protein 3) #1, the values are mean Tnf reporter z-score -0.849; inactive.
Depletion of Tab3 (TGF-beta activated kinase 1/MAP3K7 binding protein 3) #2 gave: mean Tnf reporter z-score -0.6; inactive.
Tab3 (TGF-beta activated kinase 1/MAP3K7 binding protein 3) #3 scored mean Tnf reporter z-score -0.891; inactive.
For Tab3 (TGF-beta activated kinase 1/MAP3K7 binding protein 3) #4, the entry reads mean Tnf reporter z-score 1.27; inactive.
For Tab3 (TGF-beta activated kinase 1/MAP3K7 binding protein 3) #5, the values are mean Tnf reporter z-score -0.87; inactive.
Depletion of Tab3 (TGF-beta activated kinase 1/MAP3K7 binding protein 3) #6 came out at: mean Tnf reporter z-score -0.661; inactive.
After knock-down of Il6 (interleukin 6) #1 the results were mean Tnf reporter z-score -0.531; inactive.
Il6 (interleukin 6) #2 gave mean Tnf reporter z-score 0.113; inactive.
Against Il6 (interleukin 6) #3 the deposit lists mean Tnf reporter z-score 0.747; inactive.
Il6 (interleukin 6) #4 showed mean Tnf reporter z-score -0.263; inactive.
Il6 (interleukin 6) #5 showed mean Tnf reporter z-score -0.00105; inactive.
For Il6 (interleukin 6) #6 the deposit lists mean Tnf reporter z-score 0.787; inactive.
Knock-down of Pik3ca #1 resulted in: mean Tnf reporter z-score -0.142; inactive.
Pik3ca #2 gave mean Tnf reporter z-score 0.877; inactive.
Pik3ca #3 showed mean Tnf reporter z-score -0.186; inactive.
With knock-down of Pik3ca #4 the results were mean Tnf reporter z-score -0.965; inactive.
For Pik3ca #5 the deposit lists mean Tnf reporter z-score -1.77; active.
With knock-down of Pik3ca #6 the results were mean Tnf reporter z-score -3.1; active.
With knock-down of Cd14 (CD14 antigen) #1, the screen gave mean Tnf reporter z-score -1.54; active.
Cd14 (CD14 antigen) #2 showed mean Tnf reporter z-score -2.22; active.
Against Cd14 (CD14 antigen) #3, the entry reads mean Tnf reporter z-score -0.946; inactive.
Knock-down of Cd14 (CD14 antigen) #4 gave: mean Tnf reporter z-score -1.58; active.
After knock-down of Cd14 (CD14 antigen) #5, the record shows mean Tnf reporter z-score -1.18; inactive.
Cd14 (CD14 antigen) #6 gave mean Tnf reporter z-score 0.684; inactive.
Depletion of Itgax (integrin alpha X) #1 resulted in: mean Tnf reporter z-score 0.767; inactive.
Itgax (integrin alpha X) #2 scored mean Tnf reporter z-score -0.337; inactive.
Silencing of Itgax (integrin alpha X) #3 gave: mean Tnf reporter z-score -1.38; inactive.
Against Itgax (integrin alpha X) #4 the deposit lists mean Tnf reporter z-score 0.0214; inactive.
Knock-down of Itgax (integrin alpha X) #5 gave: mean Tnf reporter z-score 0.973; inactive.
Depletion of Itgax (integrin alpha X) #6 resulted in: mean Tnf reporter z-score 0.67; inactive.
For Rela (Rela proto-oncogene, NFKB subunit) #1, the entry reads mean Tnf reporter z-score -0.381; inactive.
Against Rela (Rela proto-oncogene, NFKB subunit) #2, the entry reads mean Tnf reporter z-score 0.113; inactive.
After knock-down of Rela (Rela proto-oncogene, NFKB subunit) #3 the results were mean Tnf reporter z-score -2.26; active.
For Rela (Rela proto-oncogene, NFKB subunit) #4 the deposit lists mean Tnf reporter z-score -1.66; active.
Rela (Rela proto-oncogene, NFKB subunit) #5 gave mean Tnf reporter z-score -1.31; inactive.
Rela (Rela proto-oncogene, NFKB subunit) #6 showed mean Tnf reporter z-score -1.5; active.
Silencing of Cyld (CYLD lysine 63 deubiquitinase) #1 resulted in: mean Tnf reporter z-score 0.121; inactive.
After knock-down of Cyld (CYLD lysine 63 deubiquitinase) #2, the screen gave mean Tnf reporter z-score -0.0517; inactive.
After knock-down of Cyld (CYLD lysine 63 deubiquitinase) #3, the screen gave mean Tnf reporter z-score -0.508; inactive.
Against Cyld (CYLD lysine 63 deubiquitinase) #4 the deposit lists mean Tnf reporter z-score 0.989; inactive.
After knock-down of Cyld (CYLD lysine 63 deubiquitinase) #5 the results were mean Tnf reporter z-score -2.81; active.
With knock-down of Cyld (CYLD lysine 63 deubiquitinase) #6 the results were mean Tnf reporter z-score 0.815; inactive.

A stretch taken from the entries so far, as a working copy:
Itgax (integrin alpha X) #1: mean Tnf reporter z-score = 0.767; activity call = inactive
Itgax (integrin alpha X) #2: mean Tnf reporter z-score = -0.337; activity call = inactive
Itgax (integrin alpha X) #3: mean Tnf reporter z-score = -1.38; activity call = inactive
Itgax (integrin alpha X) #4: mean Tnf reporter z-score = 0.0214; activity call = inactive
Itgax (integrin alpha X) #5: mean Tnf reporter z-score = 0.973; activity call = inactive
Itgax (integrin alpha X) #6: mean Tnf reporter z-score = 0.67; activity call = inactive
Rela (Rela proto-oncogene, NFKB subunit) #1: mean Tnf reporter z-score = -0.381; activity call = inactive
Rela (Rela proto-oncogene, NFKB subunit) #2: mean Tnf reporter z-score = 0.113; activity call = inactive
Rela (Rela proto-oncogene, NFKB subunit) #3: mean Tnf reporter z-score = -2.26; activity call = active
